Paper PMC4605734
Results are given in words; binding and its absence hold for the method and conditions named. In cells and extracts the contact can be indirect. Some binding calls cover weakened binding; strength is not graded here. Where a sequence is shown, tags or fusion partners need not be part of it.

Biological target: T1, GST-megalin CT (GST fusion of the cytoplasmic tail of megalin) (UniProt P98164)
T1 sequence: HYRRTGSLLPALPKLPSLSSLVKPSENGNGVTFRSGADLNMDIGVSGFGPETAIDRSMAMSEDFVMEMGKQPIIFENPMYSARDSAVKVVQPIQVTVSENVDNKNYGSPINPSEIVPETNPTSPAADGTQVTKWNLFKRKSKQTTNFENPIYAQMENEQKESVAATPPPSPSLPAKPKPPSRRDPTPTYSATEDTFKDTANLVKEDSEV
Test: pull-down; about 100 ug GST-megalin CT (or GST) on glutathione-Sepharose mixed with clarified HKC-8 cell lysate (~7.5 mg/ml, 300 ul), 4°C, 60 min; pellet blotted for AS160; only the target purified

B1: Akt substrate 160kDa (AS160), endogenous in HKC-8 cells (protein, UniProt O60343 1-1298)
chain: MEPPSCIQDEPFPHPLEPEPGVSAQPGPGKPSDKRFRLWYVGGSCLDHRTTLPMLPWLMAEIRRRSQKPEAGGCGAPAAREVILVLSAPFLRCVPAPGAGASGGTSPSATQPNPAVFIFEHKAQHISRFIHNSHDLTYFAYLIKAQPDDPESQMACHVFRATDPSQVPDVISSIRQLSKAAMKEDAKPSKDNEDAFYNSQKFEVLYCGKVTVTHKKAPSSLIDDCMEKFSLHEQQRLKIQGEQRGPDPGEDLADLEVVVPGSPGDCLPEEADGTDTHLGLPAGASQPALTSSRVCFPERILEDSGFDEQQEFRSRCSSVTGVQRRVHEGSQKSQPRRRHASAPSHVQPSDSEKNRTMLFQVGRFEINLISPDTKSVVLEKNFKDISSCSQGIKHVDHFGFICRESPEPGLSQYICYVFQCASESLVDEVMLTLKQAFSTAAALQSAKTQIKLCEACPMHSLHKLCERIEGLYPPRAKLVIQRHLSSLTDNEQADIFERVQKMKPVSDQEENELVILHLRQLCEAKQKTHVHIGEGPSTISNSTIPENATSSGRFKLDILKNKAKRSLTSSLENIFSRGANRMRGRLGSVDSFERSNSLASEKDYSPGDSPPGTPPASPPSSAWQTFPEEDSDSPQFRRRAHTFSHPPSSTKRKLNLQDGRAQGVRSPLLRQSSSEQCSNLSSVRRMYKESNSSSSLPSLHTSFSAPSFTAPSFLKSFYQNSGRLSPQYENEIRQDTASESSDGEGRKRTSSTCSNESLSVGGTSVTPRRISWRQRIFLRVASPMNKSPSAMQQQDGLDRNELLPLSPLSPTMEEEPLVVFLSGEDDPEKIEERKKSKELRSLWRKAIHQQILLLRMEKENQKLEASRDELQSRKVKLDYEEVGACQKEVLITWDKKLLNCRAKIRCDMEDIHTLLKEGVPKSRRGEIWQFLALQYRLRHRLPNKQQPPDISYKELLKQLTAQQHAILVDLGRTFPTHPYFSVQLGPGQLSLFNLLKAYSLLDKEVGYCQGISFVAGVLLLHMSEEQAFEMLKFLMYDLGFRKQYRPDMMSLQIQMYQLSRLLHDYHRDLYNHLEENEISPSLYAAPWFLTLFASQFSLGFVARVFDIIFLQGTEVIFKVALSLLSSQETLIMECESFENIVEFLKNTLPDMNTSEMEKIITQVFEMDISKQLHAYEVEYHVLQDELQESSYSCEDSETLEKLERANSQLKRQNMDLLEKLQVAHTKIQALESNLENLLTRETKMKSLIRTLEQEKMAYQKTVEQLRKLLPADALVNCDLLLRDLNCNPNNKAKIGNKP
Question: How did the binding turn out when B1 was run?
Answer: The binding was “binds”.
